Among the data in the supplement of paper PMC12595434, “Development of retinoid nuclear receptor pathway antagonists through targeting aldehyde dehydrogenase 1A3” (iScience, 2025) are melting temperature shift values, retold here.

Chains of the proteins cited; added tags and fusions are not shown. Lines headed by an entry give the natural chain unless they say otherwise; changes in a name come on top.
UniProt Q8N684: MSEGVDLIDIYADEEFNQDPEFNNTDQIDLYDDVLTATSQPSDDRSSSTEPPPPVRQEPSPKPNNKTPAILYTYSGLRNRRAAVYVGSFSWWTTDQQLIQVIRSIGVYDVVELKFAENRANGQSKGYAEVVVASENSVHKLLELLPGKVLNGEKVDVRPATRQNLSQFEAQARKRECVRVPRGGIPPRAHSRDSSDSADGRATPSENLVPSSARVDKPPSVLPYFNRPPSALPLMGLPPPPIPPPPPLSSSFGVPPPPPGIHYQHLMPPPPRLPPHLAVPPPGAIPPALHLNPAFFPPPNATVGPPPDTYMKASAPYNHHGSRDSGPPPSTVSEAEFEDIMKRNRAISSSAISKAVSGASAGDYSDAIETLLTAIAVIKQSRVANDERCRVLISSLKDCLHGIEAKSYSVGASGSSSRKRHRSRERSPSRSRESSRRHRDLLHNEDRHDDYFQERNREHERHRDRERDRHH
UniProt Q8IUH5: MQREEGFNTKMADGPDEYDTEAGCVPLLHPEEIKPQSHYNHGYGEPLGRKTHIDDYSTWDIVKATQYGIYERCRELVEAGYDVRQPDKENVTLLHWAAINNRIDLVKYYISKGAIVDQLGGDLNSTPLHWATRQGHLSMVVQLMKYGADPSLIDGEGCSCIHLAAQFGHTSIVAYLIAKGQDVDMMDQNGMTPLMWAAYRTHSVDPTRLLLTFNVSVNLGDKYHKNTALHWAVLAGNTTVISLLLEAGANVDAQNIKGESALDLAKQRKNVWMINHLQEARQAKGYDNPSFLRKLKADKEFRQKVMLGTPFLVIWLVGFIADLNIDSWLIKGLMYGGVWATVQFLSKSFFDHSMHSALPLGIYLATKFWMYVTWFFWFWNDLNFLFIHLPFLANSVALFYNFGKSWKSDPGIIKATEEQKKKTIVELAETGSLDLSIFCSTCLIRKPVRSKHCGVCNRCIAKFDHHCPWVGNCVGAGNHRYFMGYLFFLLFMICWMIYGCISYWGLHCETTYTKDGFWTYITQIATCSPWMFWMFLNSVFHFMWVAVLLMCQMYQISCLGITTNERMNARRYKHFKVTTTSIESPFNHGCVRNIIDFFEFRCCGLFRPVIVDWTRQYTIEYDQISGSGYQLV
UniProt Q8IUR7, whole entry: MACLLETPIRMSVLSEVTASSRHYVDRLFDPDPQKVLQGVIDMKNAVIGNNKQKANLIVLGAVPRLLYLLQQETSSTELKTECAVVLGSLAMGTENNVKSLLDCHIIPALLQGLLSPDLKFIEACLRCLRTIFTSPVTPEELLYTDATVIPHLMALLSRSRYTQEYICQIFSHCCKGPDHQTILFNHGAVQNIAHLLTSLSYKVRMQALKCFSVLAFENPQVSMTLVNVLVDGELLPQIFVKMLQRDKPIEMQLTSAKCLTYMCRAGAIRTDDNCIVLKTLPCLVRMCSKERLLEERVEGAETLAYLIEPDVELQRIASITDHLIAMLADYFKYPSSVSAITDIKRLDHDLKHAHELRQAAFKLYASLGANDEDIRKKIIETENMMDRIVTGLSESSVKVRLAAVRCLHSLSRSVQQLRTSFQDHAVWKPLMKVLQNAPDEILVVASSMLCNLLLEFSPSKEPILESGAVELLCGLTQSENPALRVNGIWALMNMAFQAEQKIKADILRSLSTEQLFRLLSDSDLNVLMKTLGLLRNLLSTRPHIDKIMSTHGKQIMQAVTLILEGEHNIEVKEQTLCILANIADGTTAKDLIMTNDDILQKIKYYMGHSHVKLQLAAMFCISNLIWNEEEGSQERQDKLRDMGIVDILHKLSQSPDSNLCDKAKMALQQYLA
UniProt Q8IXI2: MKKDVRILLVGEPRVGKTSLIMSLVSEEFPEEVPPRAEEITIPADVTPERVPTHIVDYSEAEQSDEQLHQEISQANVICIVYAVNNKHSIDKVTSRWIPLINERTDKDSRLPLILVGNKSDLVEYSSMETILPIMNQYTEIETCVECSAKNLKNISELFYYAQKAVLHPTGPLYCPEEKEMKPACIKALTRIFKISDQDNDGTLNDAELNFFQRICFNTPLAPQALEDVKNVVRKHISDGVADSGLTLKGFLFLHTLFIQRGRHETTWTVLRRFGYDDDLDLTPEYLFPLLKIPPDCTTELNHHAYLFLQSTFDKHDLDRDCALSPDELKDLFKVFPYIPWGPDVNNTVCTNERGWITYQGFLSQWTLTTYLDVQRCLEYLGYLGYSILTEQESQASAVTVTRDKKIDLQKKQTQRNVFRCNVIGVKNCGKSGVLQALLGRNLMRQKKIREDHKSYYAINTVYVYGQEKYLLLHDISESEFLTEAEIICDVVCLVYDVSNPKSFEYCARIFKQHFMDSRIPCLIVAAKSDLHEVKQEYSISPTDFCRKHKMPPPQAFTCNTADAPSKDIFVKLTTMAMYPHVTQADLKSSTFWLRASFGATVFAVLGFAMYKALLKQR
UniProt Q8N5M1: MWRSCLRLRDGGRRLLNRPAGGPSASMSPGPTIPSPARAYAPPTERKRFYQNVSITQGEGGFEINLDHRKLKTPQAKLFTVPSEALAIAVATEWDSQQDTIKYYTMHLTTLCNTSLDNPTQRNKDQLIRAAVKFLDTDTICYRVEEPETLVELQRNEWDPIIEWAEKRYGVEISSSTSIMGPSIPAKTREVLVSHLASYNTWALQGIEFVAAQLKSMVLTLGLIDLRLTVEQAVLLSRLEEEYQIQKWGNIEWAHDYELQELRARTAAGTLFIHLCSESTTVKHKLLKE
UniProt Q8IX12: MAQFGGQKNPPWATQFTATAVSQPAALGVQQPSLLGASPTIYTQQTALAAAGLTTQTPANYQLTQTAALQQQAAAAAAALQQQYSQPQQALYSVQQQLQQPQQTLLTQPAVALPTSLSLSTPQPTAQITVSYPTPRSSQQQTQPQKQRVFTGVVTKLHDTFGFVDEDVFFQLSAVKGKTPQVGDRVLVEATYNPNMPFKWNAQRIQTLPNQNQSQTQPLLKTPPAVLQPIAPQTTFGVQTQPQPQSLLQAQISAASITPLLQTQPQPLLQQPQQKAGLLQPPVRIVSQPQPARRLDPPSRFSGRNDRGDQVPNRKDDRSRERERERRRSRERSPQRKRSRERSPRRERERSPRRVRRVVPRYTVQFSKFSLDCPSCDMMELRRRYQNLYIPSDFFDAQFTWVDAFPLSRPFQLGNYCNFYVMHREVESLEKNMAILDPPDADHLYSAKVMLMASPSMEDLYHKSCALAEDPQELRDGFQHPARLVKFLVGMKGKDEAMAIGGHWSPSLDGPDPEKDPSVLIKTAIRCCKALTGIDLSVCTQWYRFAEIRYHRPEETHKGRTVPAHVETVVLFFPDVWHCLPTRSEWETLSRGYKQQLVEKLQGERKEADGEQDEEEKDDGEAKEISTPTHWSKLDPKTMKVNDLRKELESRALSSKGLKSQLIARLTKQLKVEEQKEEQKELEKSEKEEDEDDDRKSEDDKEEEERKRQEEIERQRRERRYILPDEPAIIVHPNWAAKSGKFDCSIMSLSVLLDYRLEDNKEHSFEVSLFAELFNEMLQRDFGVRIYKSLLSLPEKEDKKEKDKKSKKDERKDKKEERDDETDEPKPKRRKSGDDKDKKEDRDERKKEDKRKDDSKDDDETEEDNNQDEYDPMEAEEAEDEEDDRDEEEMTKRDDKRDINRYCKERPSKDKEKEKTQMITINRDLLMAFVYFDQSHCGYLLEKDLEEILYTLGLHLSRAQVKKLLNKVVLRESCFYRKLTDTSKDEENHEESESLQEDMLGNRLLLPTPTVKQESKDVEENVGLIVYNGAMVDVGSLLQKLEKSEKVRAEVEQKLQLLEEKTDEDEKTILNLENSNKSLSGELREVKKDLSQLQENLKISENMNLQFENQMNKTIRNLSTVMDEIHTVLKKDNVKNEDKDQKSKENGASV
UniProt Q8N5A5: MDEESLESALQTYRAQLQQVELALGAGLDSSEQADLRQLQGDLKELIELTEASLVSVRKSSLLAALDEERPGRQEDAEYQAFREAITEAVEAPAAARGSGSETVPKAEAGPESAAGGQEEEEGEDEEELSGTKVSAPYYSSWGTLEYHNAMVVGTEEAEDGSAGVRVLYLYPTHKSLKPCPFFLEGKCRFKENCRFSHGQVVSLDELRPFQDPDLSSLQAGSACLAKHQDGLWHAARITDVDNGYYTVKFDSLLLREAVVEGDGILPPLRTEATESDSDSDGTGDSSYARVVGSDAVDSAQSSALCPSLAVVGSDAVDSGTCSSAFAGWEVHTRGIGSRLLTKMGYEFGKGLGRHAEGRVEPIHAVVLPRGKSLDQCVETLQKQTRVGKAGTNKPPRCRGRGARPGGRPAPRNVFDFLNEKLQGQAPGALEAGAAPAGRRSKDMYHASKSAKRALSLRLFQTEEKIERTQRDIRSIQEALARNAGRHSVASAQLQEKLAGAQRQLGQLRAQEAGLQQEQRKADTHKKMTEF
UniProt Q8IZV5: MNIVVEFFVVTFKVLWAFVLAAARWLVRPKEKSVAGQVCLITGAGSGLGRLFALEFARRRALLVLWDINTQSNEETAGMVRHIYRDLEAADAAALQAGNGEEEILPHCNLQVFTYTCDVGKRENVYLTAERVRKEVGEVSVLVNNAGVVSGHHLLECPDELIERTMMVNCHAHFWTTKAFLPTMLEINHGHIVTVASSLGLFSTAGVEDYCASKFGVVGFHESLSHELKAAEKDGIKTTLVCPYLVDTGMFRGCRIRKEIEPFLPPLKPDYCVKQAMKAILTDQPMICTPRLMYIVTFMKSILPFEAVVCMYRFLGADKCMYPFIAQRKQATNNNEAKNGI
UniProt Q8N6N3: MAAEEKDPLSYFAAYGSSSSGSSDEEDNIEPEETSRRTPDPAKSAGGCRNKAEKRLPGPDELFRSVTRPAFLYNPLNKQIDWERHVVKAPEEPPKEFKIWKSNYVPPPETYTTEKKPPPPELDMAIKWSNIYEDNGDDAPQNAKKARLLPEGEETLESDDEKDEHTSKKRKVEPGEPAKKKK
UniProt Q8IWB7: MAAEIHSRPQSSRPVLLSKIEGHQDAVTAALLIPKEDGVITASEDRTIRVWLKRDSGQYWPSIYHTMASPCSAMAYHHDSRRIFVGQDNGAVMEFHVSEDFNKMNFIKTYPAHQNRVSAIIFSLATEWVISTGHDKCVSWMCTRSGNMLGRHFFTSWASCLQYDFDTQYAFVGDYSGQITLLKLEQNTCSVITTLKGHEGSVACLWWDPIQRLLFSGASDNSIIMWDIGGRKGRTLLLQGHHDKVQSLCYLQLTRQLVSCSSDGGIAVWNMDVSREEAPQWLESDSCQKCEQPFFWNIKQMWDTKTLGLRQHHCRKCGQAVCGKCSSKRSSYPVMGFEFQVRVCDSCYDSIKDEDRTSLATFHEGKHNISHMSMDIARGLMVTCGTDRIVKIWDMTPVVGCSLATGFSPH
UniProt Q8IWC1: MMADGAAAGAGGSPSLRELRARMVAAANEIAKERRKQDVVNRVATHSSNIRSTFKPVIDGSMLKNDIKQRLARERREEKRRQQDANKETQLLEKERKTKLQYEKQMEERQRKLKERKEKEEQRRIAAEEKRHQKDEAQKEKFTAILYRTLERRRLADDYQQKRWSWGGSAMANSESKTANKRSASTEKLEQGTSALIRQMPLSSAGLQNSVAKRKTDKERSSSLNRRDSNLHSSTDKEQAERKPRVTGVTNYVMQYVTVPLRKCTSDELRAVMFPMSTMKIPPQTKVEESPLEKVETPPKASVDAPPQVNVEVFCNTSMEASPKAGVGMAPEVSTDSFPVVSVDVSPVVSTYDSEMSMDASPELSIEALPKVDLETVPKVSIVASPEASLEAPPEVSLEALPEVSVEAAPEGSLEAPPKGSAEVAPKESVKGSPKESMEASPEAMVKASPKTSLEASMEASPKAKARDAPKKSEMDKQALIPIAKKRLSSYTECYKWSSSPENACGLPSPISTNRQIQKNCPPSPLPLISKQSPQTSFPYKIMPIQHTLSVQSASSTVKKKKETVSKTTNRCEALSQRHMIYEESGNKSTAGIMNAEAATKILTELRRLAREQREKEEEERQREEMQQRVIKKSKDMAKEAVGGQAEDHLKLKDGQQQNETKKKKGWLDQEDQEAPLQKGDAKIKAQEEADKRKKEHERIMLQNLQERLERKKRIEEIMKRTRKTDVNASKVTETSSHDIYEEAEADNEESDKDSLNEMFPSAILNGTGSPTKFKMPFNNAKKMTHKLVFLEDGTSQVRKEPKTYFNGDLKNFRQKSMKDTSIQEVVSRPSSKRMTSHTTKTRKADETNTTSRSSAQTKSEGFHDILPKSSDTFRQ
UniProt Q86XE0: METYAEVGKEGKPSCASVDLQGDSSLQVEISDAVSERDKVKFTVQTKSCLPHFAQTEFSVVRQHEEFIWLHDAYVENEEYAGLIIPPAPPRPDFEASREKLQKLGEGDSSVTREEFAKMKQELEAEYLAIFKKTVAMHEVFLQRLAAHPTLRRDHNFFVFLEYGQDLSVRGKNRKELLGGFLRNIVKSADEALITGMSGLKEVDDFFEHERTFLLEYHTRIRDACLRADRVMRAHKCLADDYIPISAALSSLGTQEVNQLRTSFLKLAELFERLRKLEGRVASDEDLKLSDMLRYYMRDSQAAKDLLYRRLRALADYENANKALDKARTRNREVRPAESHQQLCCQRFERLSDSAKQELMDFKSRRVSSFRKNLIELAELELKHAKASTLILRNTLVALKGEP

The list shows a part of the results. The data scatter; read single values as rough.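 Many melting curves are irregular; where none melted, Tm was taken as 64 °C.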

Compound in the assay: CCc1cnccc1C(=O)Nc1cc2c(cc1F)NC(=O)CC2
The experiment in a line: melting temperature shift (DMSO Tm minus MBE1-treated Tm) in cellular thermal proteome profiling; higher = less thermal stabilization by MBE1 (negative = stabilized by MBE1). As to conditions: A375; MBE1 concentration: 100 nM.
Regarding CPSF7 (UniProt Q8N684), the melting temperature shift is -0.906 °C.
With ZDHHC17 (UniProt Q8IUH5), the melting temperature shift was -0.951 °C.
Take CDR2L (UniProt Q86X02): the melting temperature shift was -0.53 °C.
The result for C12ORF45 (UniProt Q8N5I9) reads -7.9 °C; that for ARMC8 (UniProt Q8IUR7), 0.342 °C.
The result for AHNAK2 (UniProt Q8IVF2) reads 0.0604 °C; that for UniProt Q8N5C6, -0.282 °C.
Then ALDH16A1 (UniProt Q8IZ83), with -0.49 °C; and RHOT1 (UniProt Q8IXI2), with -0.552 °C; and UniProt Q8IX01, with -0.154 °C.
Regarding DCP2 (UniProt Q8IU60), the melting temperature shift was -0.912 °C.
Then UniProt Q8IVS2, with -0.268 °C; and ATPAF2 (UniProt Q8N5M1), with -0.894 °C; and CCAR1 (UniProt Q8IX12), with 1.01 °C.
The result for COMMD1 (UniProt Q8N668) reads 1.63 °C; that for MB21D2 (UniProt Q8IYB1), 0.647 °C; that for TRAPPC5 (UniProt Q8IUR0), -0.672 °C.
Then UniProt Q8IXU6, with -0.502 °C; and ZGPAT (UniProt Q8N5A5), with -0.032 °C; and RDH10 (UniProt Q8IZV5), with -1.05 °C.
As to UniProt Q8IVL6, the melting temperature shift was -0.751 °C.
As to C1ORF52 (UniProt Q8N6N3), the melting temperature shift was determined as 0 °C.
With UniProt Q8IWZ6, the melting temperature shift amounted to 0 °C.
The result for SPG20 (UniProt Q8N0X7) reads 0.232 °C; that for UniProt Q8N5Z0, -1.05 °C; that for MRPL50 (UniProt Q8N5N7), 3.6 °C.
The result for WDFY1 (UniProt Q8IWB7) reads -2.19 °C.
Then MAP7D3 (UniProt Q8IWC1), with 0.299 °C; and FAM114A1 (UniProt Q8IWE2), with -0.782 °C.
As for UniProt Q86XE0, the melting temperature shift worked out at 0.0794 °C.
As for UBR2 (UniProt Q8IWV8), the melting temperature shift was -0.339 °C.
In the case of UniProt Q8IZX4, the melting temperature shift was -3.36 °C.
